## Drug screen on melanoma cell lines: apoptosis marker

Source: doi:10.1371/journal.pone.0140310, primary screening data, rounded.

First drug in all entries: XAV939, 10 µM, Oc1nc(-c2ccc(C(F)(F)F)cc2)nc2c1CSCC2

Drugs:
PF-04217903: OCCn1cc(-c2cnc3nnn(Cc4ccc5ncccc5c4)c3n2)cn1 at 5 µM
BI-D1870: CC(C)CCN1c2nc(Nc3cc(F)c(O)c(F)c3)ncc2N(C)C(=O)C1C (stereo not drawn) at 1 µM
darinaparsin: C[As](C)SC[C@H](NC(=O)CC[C@H](N)C(=O)O)C(=O)NCC(=O)O at 2 µM
temozolomide: Cn1nnc2c(C(N)=O)ncn2c1=O at 10 µM
dovitinib: CN1CCN(c2ccc3nc(-c4c(N)c5c(F)cccc5[nH]c4=O)[nH]c3c2)CC1 at 0.5 µM
ENMD-2076: Cc1cc(Nc2cc(N3CCN(C)CC3)nc(/C=C/c3ccccc3)n2)n[nH]1 at 0.2 µM
SNS-032: CC(C)(C)c1cnc(CSc2cnc(NC(=O)C3CCNCC3)s2)o1 at 0.05 µM
LFM-A13: C/C(O)=C(\C#N)C(=O)Nc1cc(Br)ccc1Br at 10 µM
ruxolitinib: N#CC[C@H](C1CCCC1)n1cc(-c2ncnc3[nH]ccc23)cn1 at 5 µM
CX-4945: O=C(O)c1ccc2c(c1)nc(Nc1cccc(Cl)c1)c1ccncc12 at 2 µM
dorsomorphin: c1cc(-c2cnn3cc(-c4ccc(OCCN5CCCCC5)cc4)cnc23)ccn1 at 2 µM
vismodegib: CS(=O)(=O)c1ccc(C(=O)Nc2ccc(Cl)c(-c3ccccn3)c2)c(Cl)c1 at 5 µM
BI-78D3: O=c1[nH]nc(Sc2ncc([N+](=O)[O-])s2)n1-c1ccc2c(c1)OCCO2 at 1 µM
fingolimod: CCCCCCCCc1ccc(CCC(N)(CO)CO)cc1 at 10 µM
sunitinib: CCN(CC)CCNC(=O)c1c(C)[nH]c(/C=C2\C(=O)Nc3ccc(F)cc32)c1C at 2 µM
AS-252424: O=C1NC(=O)/C(=C/c2ccc(-c3ccc(F)cc3O)o2)S1 at 5 µM

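The test systems are human melanoma cell lines, treated with two drugs together for 72 h and then stained and imaged. The read-out is the fraction of cleaved-PARP-positive nuclei, in % of that fraction in the DMSO control; 200 means twice the control level of this apoptosis marker. Concentrations were fixed for each drug; these are the higher of two levels. The file gives one value for each pair and line, without errors, so small differences may be noise. Basal and induced levels differ widely between cell lines.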
Only some of the drugs and lines screened are listed, without regard to their results.

With fingolimod the screen read SK-MEL-2: 40.4; WM1716: 346; UACC-62: 395; SK-MEL-28: 303; SK-MEL-30: 250.
With sunitinib the screen read SK-MEL-2: 79.9; WM1716: 44.7; UACC-62: 259; SK-MEL-28: 50.4; SK-MEL-30: 119.
With BI-D1870 the screen read SK-MEL-2: 39.3; WM1716: 309; UACC-62: 126; SK-MEL-28: 211; SK-MEL-30: 65.9.
With ruxolitinib the screen read SK-MEL-2: 175; WM1716: 32.2; UACC-62: 206; SK-MEL-28: 82.2; SK-MEL-30: 90.5.
With darinaparsin the screen read SK-MEL-2: 115; WM1716: 97.7; UACC-62: 153; SK-MEL-28: 94.0; SK-MEL-30: 103.
With temozolomide the screen read SK-MEL-2: 49.0; WM1716: 713; UACC-62: 71.6; SK-MEL-28: 382; SK-MEL-30: 79.1.
With PF-04217903 the screen read SK-MEL-2: 40.4; WM1716: 127; UACC-62: 143; SK-MEL-28: 114; SK-MEL-30: 107.
With dovitinib the screen read SK-MEL-2: 147; WM1716: 152; UACC-62: 105; SK-MEL-28: 85.7; SK-MEL-30: 166.
With AS-252424 the screen read SK-MEL-2: 139; WM1716: 187; UACC-62: 59.3; SK-MEL-28: 64.3; SK-MEL-30: 122.
With vismodegib the screen read SK-MEL-2: 75.8; WM1716: 902; UACC-62: 263; SK-MEL-28: 114; SK-MEL-30: 109.
With CX-4945 the screen read SK-MEL-2: 122; WM1716: 219; UACC-62: 333; SK-MEL-28: 107; SK-MEL-30: 235.
With LFM-A13 the screen read SK-MEL-2: 87.2; WM1716: 30.8; UACC-62: 251; SK-MEL-28: 67.4; SK-MEL-30: 84.4.
With dorsomorphin the screen read SK-MEL-2: 82.9; WM1716: 159; UACC-62: 121; SK-MEL-28: 48.4; SK-MEL-30: 137.
With ENMD-2076 the screen read SK-MEL-2: 82.7; WM1716: 183; UACC-62: 66.1; SK-MEL-28: 69.2; SK-MEL-30: 58.1.
With BI-78D3 the screen read SK-MEL-2: 129; WM1716: 1180; UACC-62: 161; SK-MEL-28: 81.2; SK-MEL-30: 118.
With SNS-032 the screen read SK-MEL-2: 191; WM1716: 232; UACC-62: 870; SK-MEL-28: 321; SK-MEL-30: 80.8.

The last 2 entries again:

{"second drug": "BI-78D3", "SK-MEL-2": 129, "WM1716": 1180, "UACC-62": 161, "SK-MEL-28": 81.2, "SK-MEL-30": 118}
{"second drug": "SNS-032", "SK-MEL-2": 191, "WM1716": 232, "UACC-62": 870, "SK-MEL-28": 321, "SK-MEL-30": 80.8}